Data as given in PubChem BioAssay AID1259254 (NCATS, 2017)

- Aim: 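Gene knock-downs that lead to re-replication, shown by excess G2 DNA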 (primary screen)
- Cells: human HCT116 colorectal cancer cells
- Reagents: single siRNA against human genes
- Duration: 3 days
- Read-out: 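Nuclei stained with Hoechst and imaged; cell-cycle phase assigned by DNA content; G2 share scaled per plate, non-targeting siRNA 0%, GMNN siRNA 100%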
- Scale: G2 robust z-score and G2 cells, % of GMNN control: higher = more G2 cells, more excess DNA replication
- Call rule: 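An siRNA counts as active if its G2 robust z-score lies at least 5 MADs above the screen median; here such calls match roughly 38% of GMNN control or more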
Here is an unselected part of about 59,000 reagents. Of all reagents, about 1,550 (2.6%) were called active. 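G2 share is only a proxy for re-replication; each gene was hit by three separate siRNAs, and active genes were retested.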 A number with no mark means an inactive call. Reagents against one gene are numbered here. Not all columns of the deposit are shown. Not stated in the record: the amount of reagent.

Against ERCC6L2 #1, the entry reads G2 robust z-score 0.373; G2 cells, % of GMNN control 5.59.
With knock-down of ERCC6L2 #2 the results were G2 robust z-score 2.79; G2 cells, % of GMNN control 22.6.
After knock-down of ERCC6L2 #3, the record shows G2 robust z-score 1.39; G2 cells, % of GMNN control 12.8.
Against ERCC6L2 #4, the values are G2 robust z-score -0.717; G2 cells, % of GMNN control -2.08.
Depletion of ERCC6L2 #5 came out at: G2 robust z-score -0.263; G2 cells, % of GMNN control 1.12.
With knock-down of ERCC6L2 #6, the screen gave G2 robust z-score -0.0117; G2 cells, % of GMNN control 2.88.
After knock-down of IGSF6 #1, the screen gave G2 robust z-score 0.12; G2 cells, % of GMNN control 3.81.
Knock-down of IGSF6 #2 came out at: G2 robust z-score 0.0996; G2 cells, % of GMNN control 3.67.
After knock-down of IGSF6 #3 the results were G2 robust z-score 0; G2 cells, % of GMNN control 2.97.

In a second layout: entries from further up.
target gene | siRNA no. | G2 robust z-score | G2 cells, % of GMNN control
ERCC6L2 | 5 | -0.263 | 1.12
ERCC6L2 | 6 | -0.0117 | 2.88

Additional results:
Against TMEM218 #1 the deposit lists G2 robust z-score -0.0533; G2 cells, % of GMNN control 2.59.
Silencing of TMEM218 #2 gave: G2 robust z-score 0.504; G2 cells, % of GMNN control 6.51.
Knock-down of TMEM218 #3 came out at: G2 robust z-score -0.199; G2 cells, % of GMNN control 1.57.
Silencing of CDT1 #1 came out at: G2 robust z-score -0.924; G2 cells, % of GMNN control -3.53.
For CDT1 #2, the entry reads G2 robust z-score -0.23; G2 cells, % of GMNN control 1.35.
Against CDT1 #3, the entry reads G2 robust z-score 0.461; G2 cells, % of GMNN control 6.21.
Against PRKAB1 #1, the entry reads G2 robust z-score 0.473; G2 cells, % of GMNN control 6.3.
Depletion of PRKAB1 #2 gave: G2 robust z-score 0.84; G2 cells, % of GMNN control 8.88.
PRKAB1 #3 scored G2 robust z-score -0.267; G2 cells, % of GMNN control 1.09.
NCLN #1 gave G2 robust z-score -0.793; G2 cells, % of GMNN control -2.61.
NCLN #2 scored G2 robust z-score 1.97; G2 cells, % of GMNN control 16.9.
With knock-down of NCLN #3 the results were G2 robust z-score 2.52; G2 cells, % of GMNN control 20.7.
After knock-down of EMCN #1 the results were G2 robust z-score -0.111; G2 cells, % of GMNN control 2.19.
After knock-down of EMCN #2, the record shows G2 robust z-score 5.08 (active); G2 cells, % of GMNN control 38.7.
With knock-down of EMCN #3, the screen gave G2 robust z-score 1.23; G2 cells, % of GMNN control 11.6.
